Data taken from patent publication US20100266604A1, “USE OF TAM RECEPTOR INHIBITORS AS IMMUNOENHANCERS AND TAM ACTIVATORS AS IMMUNOSUPPRESSORS” (The Salk Institute for Biological Studies, priority 2007, published 2010).
Some entries share one result that the patent states for a list of compounds.

Biological target: TAM receptor
Assay: EC50 of TAM receptor agonists
Settings: stated as an example of an embodiment, no method given

Question: For “ProS: murine recombinant Protein S, the second agonist for TAM receptors”, which EC50 is on record?
Answer: Its EC50 is 0.05 to 50 nM.
